Experimental data published in the supplement of paper PMC10849652.
The list shows a part of the results. Residues, ends and D or L forms follow the SMILES beside them. *: point of attachment. Cbz = O=C(OCc1ccccc1)*

Protein sequences, listed by entry. Tags and fused reporters are not part of them. Lines headed by an entry give the natural chain unless they say otherwise; changes in a name come on top.
UniProt Q96G46: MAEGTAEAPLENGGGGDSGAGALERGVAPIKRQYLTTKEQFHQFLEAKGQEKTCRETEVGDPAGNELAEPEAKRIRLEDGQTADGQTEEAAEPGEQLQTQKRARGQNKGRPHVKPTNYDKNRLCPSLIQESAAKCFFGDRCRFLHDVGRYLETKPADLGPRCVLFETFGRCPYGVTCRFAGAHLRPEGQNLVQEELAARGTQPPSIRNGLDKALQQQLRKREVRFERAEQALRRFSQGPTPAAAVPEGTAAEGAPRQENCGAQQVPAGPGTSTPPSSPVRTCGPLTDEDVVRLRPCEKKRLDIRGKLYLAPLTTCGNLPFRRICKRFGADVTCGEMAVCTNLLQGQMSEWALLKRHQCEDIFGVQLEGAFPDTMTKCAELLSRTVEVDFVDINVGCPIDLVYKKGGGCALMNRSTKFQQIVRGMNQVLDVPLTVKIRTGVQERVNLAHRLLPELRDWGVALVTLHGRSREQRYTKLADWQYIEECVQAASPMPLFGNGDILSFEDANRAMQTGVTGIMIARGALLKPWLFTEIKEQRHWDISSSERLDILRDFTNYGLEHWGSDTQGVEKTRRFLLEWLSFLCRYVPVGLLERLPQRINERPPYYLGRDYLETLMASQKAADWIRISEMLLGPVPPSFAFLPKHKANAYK
UniProt Q96FN9: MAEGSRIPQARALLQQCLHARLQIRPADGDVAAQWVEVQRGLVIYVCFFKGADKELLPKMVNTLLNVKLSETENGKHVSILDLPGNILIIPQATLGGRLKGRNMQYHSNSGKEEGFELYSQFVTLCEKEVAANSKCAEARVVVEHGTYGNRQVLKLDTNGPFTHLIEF
UniProt Q4LDG9: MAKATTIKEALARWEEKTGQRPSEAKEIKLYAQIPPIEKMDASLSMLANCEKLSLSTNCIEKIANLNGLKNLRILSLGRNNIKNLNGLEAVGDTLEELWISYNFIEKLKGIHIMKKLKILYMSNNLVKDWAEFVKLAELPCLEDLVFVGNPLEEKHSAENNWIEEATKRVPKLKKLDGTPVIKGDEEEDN
UniProt Q7RTS9: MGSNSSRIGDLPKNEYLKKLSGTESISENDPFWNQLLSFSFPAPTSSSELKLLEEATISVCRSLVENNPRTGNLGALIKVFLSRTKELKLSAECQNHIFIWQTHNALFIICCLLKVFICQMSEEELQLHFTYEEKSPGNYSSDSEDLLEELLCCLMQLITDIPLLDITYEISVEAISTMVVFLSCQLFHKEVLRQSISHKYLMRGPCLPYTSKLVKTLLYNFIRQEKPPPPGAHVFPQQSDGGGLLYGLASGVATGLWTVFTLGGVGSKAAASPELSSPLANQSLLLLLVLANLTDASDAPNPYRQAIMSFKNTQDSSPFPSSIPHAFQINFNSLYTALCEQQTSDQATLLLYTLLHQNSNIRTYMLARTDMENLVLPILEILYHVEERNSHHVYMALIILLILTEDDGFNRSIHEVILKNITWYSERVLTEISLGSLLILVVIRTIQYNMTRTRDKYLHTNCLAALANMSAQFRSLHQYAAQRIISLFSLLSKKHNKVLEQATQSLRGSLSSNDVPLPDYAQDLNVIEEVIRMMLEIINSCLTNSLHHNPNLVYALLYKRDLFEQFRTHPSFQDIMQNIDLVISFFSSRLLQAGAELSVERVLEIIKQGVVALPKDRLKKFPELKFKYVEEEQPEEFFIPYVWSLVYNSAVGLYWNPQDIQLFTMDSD
UniProt Q9Y3R5: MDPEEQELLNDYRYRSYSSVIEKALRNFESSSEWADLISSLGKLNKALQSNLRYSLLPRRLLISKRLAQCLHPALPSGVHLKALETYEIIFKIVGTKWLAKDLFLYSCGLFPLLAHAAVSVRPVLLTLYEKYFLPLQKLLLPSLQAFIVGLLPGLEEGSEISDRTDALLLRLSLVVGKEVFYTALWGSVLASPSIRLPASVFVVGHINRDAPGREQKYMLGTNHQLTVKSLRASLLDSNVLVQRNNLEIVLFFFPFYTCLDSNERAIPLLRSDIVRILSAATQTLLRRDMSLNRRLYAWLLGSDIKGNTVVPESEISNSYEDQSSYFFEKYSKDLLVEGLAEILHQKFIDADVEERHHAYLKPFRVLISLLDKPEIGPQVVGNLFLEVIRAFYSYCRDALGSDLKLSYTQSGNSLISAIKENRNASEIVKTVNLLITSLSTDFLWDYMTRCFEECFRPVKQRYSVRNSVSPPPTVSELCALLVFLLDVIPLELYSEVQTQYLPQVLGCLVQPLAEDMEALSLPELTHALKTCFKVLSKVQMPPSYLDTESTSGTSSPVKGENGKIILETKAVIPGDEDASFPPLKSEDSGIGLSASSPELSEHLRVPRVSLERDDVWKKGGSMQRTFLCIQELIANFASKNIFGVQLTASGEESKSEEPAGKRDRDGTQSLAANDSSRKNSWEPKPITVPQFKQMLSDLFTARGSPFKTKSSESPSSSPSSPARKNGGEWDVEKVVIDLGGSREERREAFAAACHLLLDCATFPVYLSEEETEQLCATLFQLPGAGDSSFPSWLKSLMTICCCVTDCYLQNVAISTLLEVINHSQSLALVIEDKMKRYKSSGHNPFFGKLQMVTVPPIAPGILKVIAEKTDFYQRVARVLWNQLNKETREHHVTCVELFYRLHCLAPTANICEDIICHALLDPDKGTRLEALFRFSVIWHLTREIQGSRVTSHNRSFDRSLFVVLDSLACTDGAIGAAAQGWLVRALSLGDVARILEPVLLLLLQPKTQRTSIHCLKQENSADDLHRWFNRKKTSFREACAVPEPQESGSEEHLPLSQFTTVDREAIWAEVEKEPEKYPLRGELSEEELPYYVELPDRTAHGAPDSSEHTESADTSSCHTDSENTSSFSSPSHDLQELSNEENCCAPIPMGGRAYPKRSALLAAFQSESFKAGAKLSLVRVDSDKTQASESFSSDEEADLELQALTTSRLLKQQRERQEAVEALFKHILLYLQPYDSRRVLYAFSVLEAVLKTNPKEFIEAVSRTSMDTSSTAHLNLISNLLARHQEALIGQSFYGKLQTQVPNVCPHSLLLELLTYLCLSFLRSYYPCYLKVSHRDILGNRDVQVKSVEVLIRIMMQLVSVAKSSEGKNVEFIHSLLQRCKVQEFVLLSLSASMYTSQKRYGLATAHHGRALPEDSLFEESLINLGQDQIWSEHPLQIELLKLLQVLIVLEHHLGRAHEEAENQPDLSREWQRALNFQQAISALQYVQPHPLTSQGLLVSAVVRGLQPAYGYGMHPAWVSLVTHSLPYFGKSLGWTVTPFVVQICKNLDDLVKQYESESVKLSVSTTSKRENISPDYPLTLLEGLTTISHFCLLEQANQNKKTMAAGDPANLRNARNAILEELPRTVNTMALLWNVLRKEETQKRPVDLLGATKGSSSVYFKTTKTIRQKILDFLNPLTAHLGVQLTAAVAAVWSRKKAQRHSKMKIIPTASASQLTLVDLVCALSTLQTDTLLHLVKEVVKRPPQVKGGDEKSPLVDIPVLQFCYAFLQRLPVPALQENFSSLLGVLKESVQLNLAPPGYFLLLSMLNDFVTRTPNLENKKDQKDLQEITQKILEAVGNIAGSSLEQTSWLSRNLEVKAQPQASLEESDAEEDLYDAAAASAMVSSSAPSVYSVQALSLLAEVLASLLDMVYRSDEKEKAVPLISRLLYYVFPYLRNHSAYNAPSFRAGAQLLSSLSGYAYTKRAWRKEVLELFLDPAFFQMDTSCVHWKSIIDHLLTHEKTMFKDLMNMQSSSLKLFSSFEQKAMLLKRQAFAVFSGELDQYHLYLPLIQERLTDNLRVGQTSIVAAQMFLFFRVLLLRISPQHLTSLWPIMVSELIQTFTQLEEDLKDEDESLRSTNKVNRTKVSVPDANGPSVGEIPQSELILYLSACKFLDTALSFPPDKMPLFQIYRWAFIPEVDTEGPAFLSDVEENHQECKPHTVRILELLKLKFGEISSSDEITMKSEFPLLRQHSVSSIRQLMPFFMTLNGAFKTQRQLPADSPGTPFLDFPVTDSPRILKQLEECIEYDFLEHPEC
UniProt Q6NUT2: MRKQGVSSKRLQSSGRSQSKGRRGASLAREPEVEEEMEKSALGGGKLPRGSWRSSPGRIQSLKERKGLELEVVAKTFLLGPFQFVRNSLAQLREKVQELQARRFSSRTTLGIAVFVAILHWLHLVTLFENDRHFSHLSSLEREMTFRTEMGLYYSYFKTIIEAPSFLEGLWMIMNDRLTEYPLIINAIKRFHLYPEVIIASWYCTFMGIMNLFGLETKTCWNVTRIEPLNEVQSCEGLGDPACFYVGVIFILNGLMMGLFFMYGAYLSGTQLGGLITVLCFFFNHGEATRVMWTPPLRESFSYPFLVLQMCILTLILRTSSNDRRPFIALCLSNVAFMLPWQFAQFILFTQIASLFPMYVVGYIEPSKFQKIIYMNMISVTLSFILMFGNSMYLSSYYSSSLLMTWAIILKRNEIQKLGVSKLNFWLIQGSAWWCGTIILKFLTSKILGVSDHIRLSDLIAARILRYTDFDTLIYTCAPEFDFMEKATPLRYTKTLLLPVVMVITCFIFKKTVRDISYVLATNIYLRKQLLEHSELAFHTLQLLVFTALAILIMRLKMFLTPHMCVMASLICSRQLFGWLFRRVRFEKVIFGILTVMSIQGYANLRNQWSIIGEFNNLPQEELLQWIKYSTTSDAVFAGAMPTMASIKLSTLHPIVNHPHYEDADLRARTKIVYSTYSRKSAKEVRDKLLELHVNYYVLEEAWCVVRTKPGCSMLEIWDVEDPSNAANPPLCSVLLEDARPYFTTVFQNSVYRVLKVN
UniProt Q5VYK3, whole entry, looked up: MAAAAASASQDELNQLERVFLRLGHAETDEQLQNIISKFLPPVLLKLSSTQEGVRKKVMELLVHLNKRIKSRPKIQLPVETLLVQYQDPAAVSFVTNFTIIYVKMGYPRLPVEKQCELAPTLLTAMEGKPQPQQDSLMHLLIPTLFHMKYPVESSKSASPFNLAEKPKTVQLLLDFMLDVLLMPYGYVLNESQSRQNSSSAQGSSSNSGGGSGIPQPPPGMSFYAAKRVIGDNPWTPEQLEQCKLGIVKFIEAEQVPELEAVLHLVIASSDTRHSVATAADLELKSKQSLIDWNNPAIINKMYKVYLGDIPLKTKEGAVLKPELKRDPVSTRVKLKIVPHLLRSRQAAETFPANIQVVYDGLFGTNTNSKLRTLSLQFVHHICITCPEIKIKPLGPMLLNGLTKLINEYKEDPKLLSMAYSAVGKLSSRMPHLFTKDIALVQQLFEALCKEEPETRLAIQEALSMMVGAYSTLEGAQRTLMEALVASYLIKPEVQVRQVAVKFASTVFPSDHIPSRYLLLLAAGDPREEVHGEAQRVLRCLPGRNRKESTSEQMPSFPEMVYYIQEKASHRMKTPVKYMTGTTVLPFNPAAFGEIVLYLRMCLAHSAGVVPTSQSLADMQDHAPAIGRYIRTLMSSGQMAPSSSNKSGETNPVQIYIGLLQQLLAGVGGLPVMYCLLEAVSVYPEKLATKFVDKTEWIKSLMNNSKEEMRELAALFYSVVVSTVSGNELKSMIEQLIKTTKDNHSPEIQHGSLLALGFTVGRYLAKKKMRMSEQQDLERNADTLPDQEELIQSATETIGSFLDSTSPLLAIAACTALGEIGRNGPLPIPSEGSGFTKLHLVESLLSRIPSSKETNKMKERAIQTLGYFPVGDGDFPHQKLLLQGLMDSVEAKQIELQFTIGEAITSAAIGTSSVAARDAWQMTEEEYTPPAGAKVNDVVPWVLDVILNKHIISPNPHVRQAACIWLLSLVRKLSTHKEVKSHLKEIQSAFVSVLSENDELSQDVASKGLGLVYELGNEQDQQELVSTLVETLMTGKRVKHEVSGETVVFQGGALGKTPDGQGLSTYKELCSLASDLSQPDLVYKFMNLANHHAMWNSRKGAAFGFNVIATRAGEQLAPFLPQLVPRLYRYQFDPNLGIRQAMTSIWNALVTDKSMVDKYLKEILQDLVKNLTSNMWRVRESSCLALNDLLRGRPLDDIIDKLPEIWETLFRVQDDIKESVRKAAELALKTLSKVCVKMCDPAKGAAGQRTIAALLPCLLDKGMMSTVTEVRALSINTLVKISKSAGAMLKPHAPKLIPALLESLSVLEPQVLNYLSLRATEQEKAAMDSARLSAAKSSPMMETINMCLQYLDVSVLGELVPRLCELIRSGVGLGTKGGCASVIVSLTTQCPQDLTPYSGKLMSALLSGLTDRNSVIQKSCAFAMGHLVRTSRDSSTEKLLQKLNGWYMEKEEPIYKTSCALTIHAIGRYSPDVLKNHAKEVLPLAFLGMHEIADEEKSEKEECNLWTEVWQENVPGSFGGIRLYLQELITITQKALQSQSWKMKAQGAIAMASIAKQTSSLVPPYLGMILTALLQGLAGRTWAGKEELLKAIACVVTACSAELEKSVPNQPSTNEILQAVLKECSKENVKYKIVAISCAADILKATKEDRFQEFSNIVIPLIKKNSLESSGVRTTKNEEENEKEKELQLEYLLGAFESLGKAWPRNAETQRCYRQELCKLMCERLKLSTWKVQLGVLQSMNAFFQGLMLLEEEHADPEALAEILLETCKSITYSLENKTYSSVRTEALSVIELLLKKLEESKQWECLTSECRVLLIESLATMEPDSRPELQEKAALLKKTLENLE

What was measured:
Test in all cases: log2 fold change, soluble protein after heating vs DMSO (PISA); higher = thermal stabilisation; K562 cells, 10 uM, 30 min; active = over 0.2 and 3.5 SD of the protein, either way, in both replicates (recomputed)
[1] = compound: C1COCCN1CCN2C3=CC=CC=C3N=C2NC(=O)C4=CC(=CC=C4)[N+](=O)[O-] [IRAK-1-4 Inhibitor I]
Method in brief: (§1)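 K562 cells at 2×10^6 cells/mL were treated with 10 μM compound for 30 min. Aliquots were heated for 3 min across 48°C-58°C, pooled, and extracted in PBS with 0.5% NP-40 at 4°C; soluble protein was the supernatant after 21,000xg for 90 min. Soluble protein was quantified by TMTpro 16plex LC-MS/MS with channel sums equalised, and reported as log2 fold change in thermal stability against DMSO controls, with values from duplicates.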

[2] = compound: C=CC(=O)N1CCC[C@@H](n2nc(-c3ccc(Oc4ccccc4)cc3)c3c(N)ncnc32)C1 [ibrutinib]
Method in brief: as §1

[3] = compound: CC(=O)c1cnc2ccc(-c3cc(Cl)c(O)c(Cl)c3)nc2c1N[C@H]1CC[C@H](CN(C)C)CC1
Method in brief: as §1

[4] = compound: CC(C)(C)Cn1c(N)nc2ccc(-c3[nH]c(C(C)(C)C)nc3-c3ccc(F)cc3)nc21 [ralimetinib]
Method in brief: as §1

[5] = compound: CC(C)(O)CC(=O)NCCn1ccc2ncnc(Nc3ccc(Oc4cccc(C(F)(F)F)c4)c(Cl)c3)c21
Method in brief: as §1

[6] = compound: CC(C)C1=C2N=C(C=C(N2N=C1)NCC3=CC=CC=C3)NCCCCCCN
Method in brief: as §1

[7] = compound: CC(C)C[C@@H](C=O)NC(=O)[C@H](CC(C)C)NC(=O)[C@H](CC(C)C)NC(=O)OCc1ccccc1
Method in brief: as §1

[8] = compound: CC(C)N(C[C@H]1O[C@@H](n2cnc3c(N)ncnc32)[C@H](O)[C@@H]1O)[C@H]1C[C@@H](CCc2nc3cc(C(C)(C)C)ccc3[nH]2)C1 [pinometostat]
Method in brief: as §1

[9] = compound: CC1=C(C2=C(C=C1)C(=O)C3=CC=CC=C3N2CCCN)C
Method in brief: as §1

[10] = compound: CC1=C(C=C(C=C1)NC(=O)C2=CC(=CC=C2)C(C)(C)C#N)NC3=CC4=C(C=C3)N=CN(C4=O)C
Method in brief: as §1

[11] = compound: CC1=C(C=C(C=C1)NC(=O)C2=CC(=CC=C2)N(C)C)NC(=O)C3=CC=C(C=C3)O
Method in brief: as §1

[12] = compound: CC1=CC=C(C=C1)SC2=C3C=C(SC3=CN=C2)C(=O)N
Method in brief: as §1

[13] = compound: CC1=NC(=CC=C1)C2=C(N=C(N2)C(C)(C)C)C3=CC4=NC=CN=C4C=C3
Method in brief: as §1

[14] = compound: CCCCN(Cc1ccc(C(=O)NO)cc1)C(=O)Nc1ccccc1 [Nexturastat A]
Method in brief: as §1

[15] = compound: CCCS(=O)(=O)Nc1ccc(F)c(C(=O)c2c[nH]c3ncc(-c4ccc(Cl)cc4)cc23)c1F [vemurafenib]
Method in brief: as §1

[16] = compound: CCCS(=O)(=O)Nc1ccc(F)c(C(=O)c2c[nH]c3ncc(Cl)cc23)c1F
Method in brief: as §1

[17] = compound: CCCc1cc(C)[nH]c(=O)c1CNC(=O)c1cc(-c2ccnc(N3CCN(C)CC3)c2)cc2c1cnn2C(C)C
Method in brief: as §1

[18] = compound: CCN(CC)Cc1ccc2cc(COC(=O)Nc3ccc(C(=O)NO)cc3)ccc2c1 [givinostat]
Method in brief: as §1

[19] = compound: CCN(CCCOc1ccc2c(Nc3cc(CC(=O)Nc4cccc(F)c4)[nH]n3)ncnc2c1)CCOP(=O)(O)O [barasertib]
Method in brief: as §1

[20] = compound: CC1=C(C(CC(=O)N1)C2=CC=C(C=C2)C(F)(F)F)C(=O)NC3=C(C=C4C(=C3)C=NN4)F
Method in brief: as §1

| Target | log2 fold change [1] | log2 fold change [2] | log2 fold change [3] | log2 fold change [4] | log2 fold change [5] | log2 fold change [6] | log2 fold change [7] | log2 fold change [8] | log2 fold change [9] | log2 fold change [10] | log2 fold change [11] | log2 fold change [12] | log2 fold change [13] | log2 fold change [14] | log2 fold change [15] | log2 fold change [16] | log2 fold change [17] | log2 fold change [18] | log2 fold change [19] | log2 fold change [20] |
| --- | --- | --- | --- | --- | --- | --- | --- | --- | --- | --- | --- | --- | --- | --- | --- | --- | --- | --- | --- | --- |
| DUS3L (UniProt Q96G46) | inactive: 0 | inactive: 0.008 | inactive: -0.031 | inactive: 0.042 | inactive: -0.043 | inactive: 0.062 | inactive: -0.055 | inactive: -0.022 | inactive: -0.005 | inactive: 0.064 | inactive: -0.015 | inactive: -0.01 | inactive: 0.017 | inactive: -0.023 | inactive: 0.042 | inactive: 0.031 | inactive: 0.036 | inactive: -0.004 | inactive: 0.021 |  |
| DNM2 isoform 4 (UniProt P50570) | inactive: 0.019 | inactive: -0.074 |  | inactive: 0.005 | inactive: -0.101 | inactive: -0.047 | inactive: -0.04 | inactive: -0.063 |  | inactive: 0.062 | inactive: -0.001 |  | inactive: 0.23 | inactive: 0.089 |  |  | inactive: -0.032 | inactive: 0.159 | inactive: 0.013 |  |
| DTD2 (UniProt Q96FN9) | inactive: -0.055 |  | inactive: 0.013 |  | inactive: 0.247 | inactive: 0.134 |  | inactive: 0.048 | inactive: -0.018 | inactive: 0.005 |  | inactive: -0.023 | inactive: -0.005 | inactive: 0.081 | inactive: -0.067 | inactive: -0.169 |  | inactive: -0.005 |  | inactive: 0.059 |
| DNAL1 (UniProt Q4LDG9) | inactive: 0.012 | inactive: -0.082 | inactive: 0.042 | inactive: 0.042 | inactive: 0.183 |  | inactive: 0.007 | inactive: 0.093 |  |  | inactive: 0.049 |  | inactive: 0.069 | inactive: -0.135 | inactive: 0.013 |  |  |  | inactive: 0.012 |  |
| DNAJC25 (UniProt Q9H1X3) | inactive: 0.127 | inactive: 0.066 |  |  |  | inactive: -0.71 |  | inactive: 0 | inactive: 0.205 |  |  | inactive: -0.088 | inactive: 0.143 |  |  | inactive: 0.073 |  | inactive: 0.059 | inactive: -0.03 |  |
| DYM (UniProt Q7RTS9) | inactive: 0.051 | inactive: -0.115 |  | inactive: 0.035 | inactive: -0.235 | inactive: -0.227 | inactive: 0.023 | inactive: 0.02 | inactive: 0.154 | inactive: 0.015 | inactive: -0.015 | inactive: 0.249 | inactive: 0.045 | inactive: 0.011 | inactive: -0.011 | inactive: 0.015 | inactive: 0.075 | inactive: 0.116 | inactive: 0.092 | inactive: -0.071 |
| DPCD (UniProt Q9BVM2) | inactive: -0.143 |  | inactive: -0.064 |  |  |  |  | inactive: 0.14 |  |  |  |  | inactive: -0.044 |  | inactive: 0.099 |  |  |  |  |  |
| DOP1B (UniProt Q9Y3R5) | inactive: 0.053 | inactive: -0.045 |  | inactive: -0.071 | inactive: 0.097 |  | inactive: -0.023 | inactive: -0.091 | inactive: 0.085 | inactive: 0.021 | inactive: 0.026 |  | inactive: 0.118 | inactive: -0.095 | inactive: -0.139 |  | inactive: -0.263 |  | inactive: -0.165 | inactive: -0.049 |
| ECD isoform 3 (UniProt O95905) | inactive: 0.025 | inactive: -0.011 |  | inactive: 0.123 | inactive: -0.011 | inactive: -0.192 | inactive: 0.053 | inactive: 0.105 | inactive: 0.062 | inactive: -0.015 | inactive: -0.061 | inactive: 0.021 | inactive: -0.029 | inactive: 0.037 | inactive: 0 | inactive: 0.027 | inactive: -0.063 | inactive: 0.058 | inactive: -0.001 | inactive: -0.017 |
| DPY19L2 (UniProt Q6NUT2) | inactive: -0.002 | inactive: -0.103 | inactive: -0.141 |  |  |  |  | inactive: 0.096 | inactive: 0.111 |  |  |  | inactive: 0.031 |  | inactive: -0.124 |  | inactive: 0.046 |  | inactive: 0.045 | inactive: 0.079 |
| ECPAS (UniProt Q5VYK3) | inactive: -0.117 | inactive: -0.09 | inactive: 0.009 | inactive: 0.082 | inactive: -0.139 | inactive: -0.094 | active: 0.564 | inactive: 0.055 | inactive: 0.092 | inactive: 0.008 | inactive: -0.06 | inactive: 0.016 | inactive: 0.02 | inactive: 0.049 | inactive: 0.084 | inactive: 0.059 | inactive: 0.051 | inactive: 0.118 | inactive: 0.037 |  |

Quoted from the listing:
DOP1B (UniProt Q9Y3R5) | log2 fold change [8]: inactive: -0.091
ECPAS (UniProt Q5VYK3) | log2 fold change [5]: inactive: -0.139
